Here are results for 1 compound from patent US20030229044A1, “Use of statins and other immunomodulatory agents in the treatment of autoimmune disease” (priority 2002, published 2003).

For experiment [1], the system named is CNS infiltrates in brains of EAE mice. The following applies: H&E brain sections, 1 and 10 mg/kg, vs PBS treated mice; day 22 after EAE induction, C57BL/6.
The test system of experiment [2] is CIITA transcripts in the CNS. The settings on record: brain, SJL/J mice, 1 or 10 mg/kg oral for 12 days.

Turning to `CC(C)c1c(C(=O)Nc2ccccc2)c(-c2ccccc2)c(-c2ccc(F)cc2)n1CC[C@@H](O)C[C@@H](O)CC(=O)O` [atorvastatin], the “number and size of CNS infiltrates” value in experiment [1] was “reduction in number and size of CNS infiltrates”. Moreover, in experiment [2], the “CIITA PIV transcript” value is recorded as “dose dependent inhibition” and the “specific isoforms of CIITA (PI, PIII, PIV)” value is recorded as “inhibits all three specific isoforms of CIITA”. The “total expression of CIITA transcripts” value in experiment [2] (day 10 of EAE) is recorded as “inhibited the total expression of CIITA transcripts in a dose response matter”.
